According to patent US20020155479A1, “Expression cloning method” (Whitehead Institute for Biomedical Research, priority 1999, published 2002):
For at least one compound, name, drawing or mass did not settle the structure.

Columns and labels:
[1] = test system: GLUT4 at the plasma membrane of CHO cells; assay: FACS-based assay of the proportion of GLUT4 reporter at the cell surface, CHO cells; parameters: species or system Chinese Hamster
Method: Confluent cells were reseeded on the indicated day of differentiation to six well plates (Coming, Costar #3506) one day before use in experiments, and were starved in DMEM without fetal bovine serum for at least 3 hours before insulin stimulation. Insulin was generally used at 160 nM; occasionally it was used at 80 nM or 200 nM and no difference was noted between these concentrations in either 3T3-L1 or CHO cells. Insulin was added directly to the wells from a 100×stock. […]
(§1) Flow cytometry was done on FACScan or FACSCalibur cytometers (Becton-Dickinson). […] Median fluorescence intensities were used for quantification, since this measure of central tendency is least sensitive to outliers. For each sample, the PE and GFP fluorescence specifically attributable to the presence of the GLUT4 reporter were determined by subtracting background fluorescences, measured using control unstained cells and cells not expressing the reporter, respectively. […] The ratio of fluorescence intensities plotted on the vertical axes of many figures is a relative, not absolute, measure of the proportion of GLUT4 at the cell surface. […] This consisted of calculating (0.25ra1—0.5rc+0.25rc+1), where r is the ratio of specific fluorescences for timepoint t. This calculated value was used for timepoints t=2 to ten−1, where n is the total number of timepoints. For the last time point t=n, (0.33rc1+0.67r1) was calculated. […]

[2] = test system: insulin-stimulated glucose uptake; details: short-term rapamycin treatment; cited from earlier work
[3] = test system: GLUT4 at the plasma membrane of 3T3-L1 cells; assay: FACS-based assay of the proportion of GLUT4 reporter at the cell surface, 3T3-L1 cells; parameters: species or system murine; details: for effect on insulin-triggered GLUT4 exocytosis: 3T3-L1 cells at all times of differentiation, 100 nM wortmannin or 50 μM LY294002 for 40 minutes prior to insulin
Method: Confluent cells were reseeded on the indicated day of differentiation to six well plates (Coming, Costar #3506) one day before use in experiments, and were starved in DMEM without fetal bovine serum for at least 3 hours before insulin stimulation. Insulin was generally used at 160 nM; occasionally it was used at 80 nM or 200 nM and no difference was noted between these concentrations in either 3T3-L1 or CHO cells. Insulin was added directly to the wells from a 100×stock. After treatment in the presence or absence of insulin for the times indicated in each figure, cells were quickly transferred to […] and washed with cold phosphate buffered saline (PBS) containing 0.9 mM Ca^++ and 0.5 mM Mg^++ (PBS++). All subsequent steps were carried out at 4° C., and staining of externalized myc epitope was done on adherent cells. Cells were incubated with a 1:200 dilution of anti-myc (9E10) ascites or using 25 μg/ml purified 9E10 in PBS++, 2% bovine serum albumin (BSA), 4% donkey serum for 1.5 hours. Cells were then washed twice in PBS++, for 5 minutes each time. They were then incubated 45 minutes in 12.5 to 25 μg/ml R-phycoerythrin conjugated donkey F(ab′)2 anti-mouse IgG secondary antibody, diluted in PBS++, 2% BSA, 4% donkey serum. Cells were rinsed twice in PBS++, then washed three times in PBS++ for 10 minutes each time, and were resuspended by gentle scraping in PBS++, 2% BSA or PBS++, 5% fetal bovine serum for flow cytometry. For experiments involving insulin removal, cells were chilled as above after insulin stimulation, then washed twice with 5 mM sodium acetate, 150 mM NaCl, pH 4.0 (Kao, A. W., et al., 1998, J Biol Chem 273:25450-7; Yang., J., et al., 1992, J Biol Chem 267:10393-9). Cells were rewarmed in 37° C. DMEM for the times indicated, restimulated or not with insulin, and then returned to 4° C. and chilled with cold PBS++ before staining as above.
as §1

SMILES	overshoot of the final, steady-state response ([1]; highest rapamycin concentration)	effect on the rapid, first phase of insulin stimulated GLUT4 externalization ([1]; range of rapamycin concentrations, FIG. 23)	effect on insulin-stimulated glucose uptake [2]	effect on the magnitude of GLUT4 translocation by insulin ([3]; 3T3-L1 adipocytes, progressive increase in rapamycin concentration, FIG. 25)	effect on biphasic kinetics of GLUT4 translocation ([3]; 3T3-L1 adipocytes, rapamycin treatment)	effect on insulin-triggered GLUT4 exocytosis [3]
CO[C@H]1C[C@@H]2CC[C@@H](C)[C@@](O)(O2)C(=O)C(=O)N2CCCC[C@H]2C(=O)O[C@H]([C@H](C)C[C@@H]2CC[C@@H](O)[C@H](OC)C2)CC(=O)[C@H](C)/C=C(\C)[C@@H](O)[C@@H](OC)C(=O)[C@H](C)C[C@H](C)/C=C/C=C/C=C/1C [rapamycin, reference compound]	no overshoot	progressively eliminated	no effect	progressive decrease	does not alter the presence of biphasic kinetics	–
O=c1cc(N2CCOCC2)oc2c(-c3ccccc3)cccc12 [LY294002, reference compound]	–	–	–	–	–	blocked
COC[C@H]1OC(=O)c2coc3c2[C@@]1(C)C1=C(C3=O)[C@@H]2CCC(=O)[C@@]2(C)C[C@H]1OC(C)=O [Wortmannin, reference compound]	–	–	–	–	–	blocked
